According to PMC12578312:
No constants are given. Whether binding was seen depends on the method and setting. Binding seen in cells or lysates may run through a third protein. Some binding calls cover weakened binding; strength is not graded here.

Chains of the proteins cited; added tags and fusions are not shown.
UniProt Q9H6L5: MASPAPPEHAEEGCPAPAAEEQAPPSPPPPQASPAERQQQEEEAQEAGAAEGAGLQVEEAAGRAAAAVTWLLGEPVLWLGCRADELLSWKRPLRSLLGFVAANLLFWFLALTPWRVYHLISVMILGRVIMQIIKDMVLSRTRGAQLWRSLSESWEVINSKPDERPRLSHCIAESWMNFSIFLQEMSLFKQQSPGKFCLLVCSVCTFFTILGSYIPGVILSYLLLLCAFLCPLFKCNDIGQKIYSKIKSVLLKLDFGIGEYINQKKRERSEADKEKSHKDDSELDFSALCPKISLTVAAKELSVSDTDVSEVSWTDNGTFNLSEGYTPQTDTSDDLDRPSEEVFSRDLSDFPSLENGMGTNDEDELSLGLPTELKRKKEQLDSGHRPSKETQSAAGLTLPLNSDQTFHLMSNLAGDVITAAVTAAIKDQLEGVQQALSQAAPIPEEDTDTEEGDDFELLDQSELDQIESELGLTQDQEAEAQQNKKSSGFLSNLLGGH

Columns and labels:
FAM134B-V5 [1] = molecular target: FAM134B-V5 (UniProt Q9H6L5); test: co-IP; HeLa WT cells transfected with FAM134B-V5 alone or with ATZ-HA; 100 nM BafA1 for 6 h; lysed with 2% CHAPS; V5-agarose beads at 4°C overnight; western blot of endogenous proteins
FAM134B-V5 [2] = molecular target: FAM134B-V5 (UniProt Q9H6L5); test: co-IP; HeLa VAPA/B DKO cells transfected with FAM134B-V5 alone or with ATZ-HA; 100 nM BafA1 for 6 h; lysed with 2% CHAPS; V5-agarose beads at 4°C overnight; western blot of endogenous proteins
FAM134B-V5 [3] = molecular target: FAM134B-V5 (UniProt Q9H6L5); test: co-IP; HEK293 cells transfected with FAM134B-V5 alone, with ATZ-HA or with NHK-HA; 100 nM BafA1 for 6 h; lysed with 2% CHAPS in HEPES buffer pH 6.8; V5-agarose beads at 4°C overnight, washes with 0.5% CHAPS; western blot of endogenous and HA-tagged proteins

Measured: binding

B1: calnexin (CNX) (protein, UniProt P27824 21-592)
chain: HDGHDDDVIDIEDDLDDVIEEVEDSKPDTTAPPSSPKVTYKAPVPTGEVYFADSFDRGTLSGWILSKAKKDDTDDEIAKYDGKWEVEEMKESKLPGDKGLVLMSRAKHHAISAKLNKPFLFDTKPLIVQYEVNFQNGIECGGAYVKLLSKTPELNLDQFHDKTPYTIMFGPDKCGEDYKLHFIFRHKNPKTGIYEEKHAKRPDADLKTYFTDKKTHLYTLILNPDNSFEILVDQSVVNSGNLLNDMTPPVNPSREIEDPEDRKPEDWDERPKIPDPEAVKPDDWDEDAPAKIPDEEATKPEGWLDDEPEYVPDPDAEKPEDWDEDMDGEWEAPQIANPRCESAPGCGVWQRPVIDNPNYKGKWKPPMIDNPSYQGIWKPRKIPNPDFFEDLEPFRMTPFSAIGLELWSMTSDIFFDNFIICADRRIVDDWANDGWGLKKAADGAAEPGVVGQMIEAAEERPWLWVVYILTVALPVFLVILFCCSGKKQTSGMEYKKTDAPQPDVKEEEEEKEEEKDKGDEEEEGEEKLEEKQKSDAEEDGGTVSQEEEDRKPKAEEDEILNRSPRNRKPRRE
binds: all assays above
